Results taken from the supplement of paper PMC10331698.
± gives the standard deviation of the averaged measurements. Most values lie at the level of the controls, where differences are scatter.

Legend:
Test in all cases: level (log10 ratio to DMSO vehicle control); higher = higher biomarker level / cell amount than vehicle control
[1] = compound: C=C(C)C(=O)OCC(F)(F)C(F)(F)C(F)(F)C(F)(F)C(F)(F)C(F)(F)C(F)(F)F; conditions: in DMSO
Experimental: (§1)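 BioMAP Diversity Plus panel of 12 human primary cell co-culture systems (3C, 4H, LPS, SAg, BT, BF4T, BE3C, CASM3C, HDF3CGF, KF3CT, MyoF, Mphg). Compounds were added 1 h before stimulation and left for 24 h (MyoF 48 h; BT 72 h for soluble read-outs or 6 d for IgG). Biomarkers were read by ELISA, cytotoxicity by SRB, PBMC viability and proliferation by Alamar Blue. Each well value was divided by the mean of 8 DMSO control wells on the same plate and log10 transformed; duplicate blinded samples were tested at 4 concentrations.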

[2] = compound: C=CC(=O)OCC(F)(F)C(F)(F)C(F)(F)C(F)(F)C(F)(F)C(F)(F)C(F)(F)F [1H,1H-Perfluorooctyl acrylate]; conditions: 2200 nM; in DMSO
Experimental: as §1

[3] = compound: C=CC(F)(F)C(F)(F)C(F)(F)C(F)(F)C(F)(F)C(F)(F)C(F)(F)C(F)(F)C=C [1,8-Divinylperfluorooctane]; conditions: in DMSO
Experimental: as §1

[4] = compound: COC(=O)C(F)(F)C(F)(F)OC(F)(C(F)(F)F)C(F)(F)OC(F)=C(F)F [Methyl perfluoro(3-(1-ethenyloxypropan-2-yloxy)propanoate)]; conditions: in DMSO
Experimental: as §1

[5] = compound: CO[Si](C)(CCC(F)(F)C(F)(F)C(F)(F)C(F)(F)C(F)(F)C(F)(F)F)OC [Dimethoxymethyl((perfluorohexyl)ethyl)silane]; conditions: in DMSO
Experimental: as §1

[6] = compound: FC(F)(F)C(F)(F)C(F)(F)CC1CO1 [1H,1H-Heptafluorobutyl epoxide]; conditions: 2200 nM; in DMSO
Experimental: as §1

[7] = compound: FC(F)(F)C(F)(F)C(F)(F)CI [Heptafluorobutyl iodide]; conditions: 2200 nM; in DMSO
Experimental: as §1

[8] = compound: NC(=O)C(F)(F)C(F)(F)C(F)(F)C(F)F; conditions: in DMSO
Experimental: as §1

[9] = compound: NC(=O)C(F)(F)C(F)(F)F [Pentafluoropropionamide]; conditions: 2200 nM; in DMSO
Experimental: as §1

[10] = compound: NS(=O)(=O)C(F)(F)C(F)(F)C(F)(F)C(F)(F)C(F)(F)C(F)(F)C(F)(F)C(F)(F)F [Perfluorooctanesulfonamide]; conditions: in DMSO
Experimental: as §1

[11] = compound: O=C(O)C(F)(F)C(F)(F)C(F)F [4H-Perfluorobutanoic acid]; conditions: in DMSO
Experimental: as §1

[12] = compound: O=P(O)(O)CCC(F)(F)C(F)(F)C(F)(F)C(F)(F)C(F)(F)C(F)(F)F [2-(Perfluorohexyl)ethylphosphonic acid]; conditions: 2200 nM; in DMSO
Experimental: as §1

[13] = compound: O=S(=O)(F)C(F)(F)C(F)(F)C(F)(F)C(F)(F)C(F)(F)C(F)(F)C(F)(F)C(F)(F)F [Perfluorooctanesulfonyl fluoride]; conditions: 2200 nM; in DMSO
Experimental: as §1

[14] = compound: O=S(=O)(O)C(F)(F)C(F)(F)C(F)(F)C(F)(F)C(F)(F)C(F)(F)C(F)(F)C(F)(F)F [Perfluorooctanesulfonic acid]; conditions: 2200 nM; in DMSO
Experimental: as §1

[15] = compound: O=S(=O)(O)C(F)(F)C(F)(F)C(F)(F)C(F)(F)C(F)(F)C(F)(F)C(F)(F)C(F)(F)F [Potassium perfluorooctanesulfonate]; conditions: 2200 nM; in DMSO
Experimental: as §1

[16] = compound: O=S(=O)(OCC(F)(F)F)C(F)(F)C(F)(F)C(F)(F)C(F)(F)F [2,2,2-Trifluoroethyl perfluorobutanesulfonate]; conditions: 2200 nM; in DMSO
Experimental: as §1

[17] = compound: OCC(F)(F)C(F)(F)C(F)(F)C(F)(F)C(F)(F)C(F)F [1H,1H,7H-Dodecafluoro-1-heptanol]; conditions: 2200 nM; in DMSO
Experimental: as §1

[18] = compound: OCCCCC(F)(F)C(F)(F)C(F)(F)C(F)(F)F [4:4 Fluorotelomer alcohol]; conditions: 2200 nM; in DMSO
Experimental: as §1

Row | Test System | level (log10) ([1]; 740 nM) | level (log10) ([1]; 2200 nM) | level (log10) [2] | level (log10) ([3]; 740 nM) | level (log10) ([3]; 2200 nM) | level (log10) ([4]; 740 nM) | level (log10) ([4]; 2200 nM) | level (log10) ([5]; 740 nM) | level (log10) ([5]; 2200 nM) | level (log10) [6] | level (log10) [7] | level (log10) ([8]; 2200 nM) | level (log10) ([8]; 6700 nM) | level (log10) ([8]; 20000 nM) | level (log10) ([8]; 60000 nM) | level (log10) [9] | level (log10) ([10]; 2200 nM) | level (log10) ([10]; 6700 nM) | level (log10) ([10]; 20000 nM) | level (log10) ([11]; 2200 nM) | level (log10) ([11]; 6700 nM) | level (log10) ([11]; 20000 nM) | level (log10) ([11]; 60000 nM) | level (log10) [12] | level (log10) [13] | level (log10) [14] | level (log10) [15] | level (log10) [16] | level (log10) [17] | level (log10) [18]
1 | KF3CT:CXCL9/MIG | 0.0015 ± 0.018 | 0.0085 ± 0.021 | 0.0085 ± 0.00071 | -0.005 ± 0.0042 | -0.003 ± 0.0042 | -0.001 ± 0.0042 | 0.009 ± 0.0099 | -0.0095 ± 0.016 | -0.004 ± 0.0042 | -0.0005 ± 0.012 | 0.001 ± 0.0042 | 0.0135 ± 0.021 | 0.019 ± 0.018 | 0.006 ± 0.02 | 0.0145 ± 0.0078 | -0.007 ± 0.0057 | 0.0005 ± 0.00071 | 0.0075 ± 0.0035 | -0.032 ± 0.034 | 0.004 ± 0.0071 | -0.004 ± 0.016 | -0.011 ± 0.011 | -0.007 ± 0.0071 | 0 ± 0.023 | -0.0005 ± 0.0035 | 0.005 ± 0.0071 | 0.007 ± 0.0042 | 0.0305 ± 0.026 | 0.006 ± 0.0028 | 0.0125 ± 0.005
2 | CASM3C:CD87/uPAR | -0.0115 ± 0.022 | -0.0075 ± 0.0078 | 0.0195 ± 0.025 | -0.0115 ± 0.015 | -0.016 ± 0.024 | -0.013 ± 0.047 | -0.016 ± 0.034 | -0.0055 ± 0.013 | -0.0145 ± 0.0035 | -0.0205 ± 0.033 | -0.017 ± 0.024 | -0.023 ± 0.017 | -0.0115 ± 0.015 | -0.0035 ± 0.0078 | -0.019 ± 0.017 | -0.008 ± 0.0071 | -0.0015 ± 0.013 | -0.007 ± 0.031 | -0.0055 ± 0.026 | 0 ± 0.014 | -0.016 ± 0.013 | 0 ± 0.02 | 0.0055 ± 0.022 | -0.05 ± 0.025 | -0.0215 ± 0.0092 | 0.003 ± 0.0071 | -0.0055 ± 0.0021 | -0.015 ± 0.051 | -0.0165 ± 0.0064 | -0.0125 ± 0.059
3 | 3C:CXCL8/IL-8 | 0.0255 ± 0.067 | 0.002 ± 0.064 | 0.005 ± 0.024 | 0.0145 ± 0.023 | -0.017 ± 0.0028 | 0.0135 ± 0.063 | -0.0245 ± 0.021 | 0.003 ± 0.0099 | -0.011 ± 0.0071 | -0.012 ± 0.05 | -0.02 ± 0.034 | 0.0165 ± 0.035 | 0.0025 ± 0.016 | -0.007 ± 0.0042 | 0.012 ± 0.0099 | 0.0125 ± 0.036 | 0.0275 ± 0.0092 | 0.012 ± 0.018 | 0.0635 ± 0.0064 | 0.02 ± 0.04 | -0.0015 ± 0.054 | 0.009 ± 0.0071 | 0.0395 ± 0.042 | 0.0135 ± 0.09 | 0 ± 0.02 | 0.016 ± 0.0042 | 0.032 ± 0.067 | -0.006 ± 0.014 | 0.0175 ± 0.057 | 0.02 ± 0.044
4 | BE3C:CXCL10/IP-10 | 0.001 ± 0.011 | 0.0025 ± 0.013 | 0.045 ± 0.0099 | 0 | 0 ± 0.0014 | 0.024 ± 0.02 | 0.0075 ± 0.012 | 0.007 ± 0.0042 | -0.001 | -0.0105 ± 0.018 | -0.002 ± 0.0071 | 0.003 ± 0.0042 | 0.0025 ± 0.0064 | -0.0015 ± 0.016 | 0.007 ± 0.013 | -0.007 ± 0.0057 | -0.03 ± 0.0085 | -0.142 ± 0.0078 | -0.414 ± 0.0028 | 0 ± 0.023 | -0.006 ± 0.021 | -0.001 ± 0.0099 | 0.017 ± 0.021 | -0.016 ± 0.014 | 0.023 ± 0.035 | 0.0025 ± 0.0078 | -0.0095 ± 0.0078 | 0.026 ± 0.013 | 0.014 ± 0.011 | 0.002 ± 0.0071
5 | 4H:CD106/VCAM-1 | 0.014 ± 0.028 | -0.0145 ± 0.011 | 0.0255 ± 0.057 | 0.016 ± 0.0042 | -0.0195 ± 0.025 | 0.025 ± 0.016 | -0.0055 ± 0.005 | 0.0085 ± 0.033 | 0.0065 ± 0.046 | 0.0255 ± 0.00071 | -0.011 ± 0.028 | -0.0125 ± 0.022 | -0.0145 ± 0.005 | -0.021 ± 0.0085 | -0.007 ± 0.0057 | 0.0235 ± 0.0078 | 0.0205 ± 0.00071 | 0.013 ± 0.034 | -0.0335 ± 0.044 | 0.002 ± 0.0014 | -0.003 ± 0.014 | -0.0165 ± 0.011 | 0.0065 ± 0.011 | 0.0155 ± 0.012 | 0.0135 ± 0.094 | 0.017 ± 0.0071 | 0.008 ± 0.028 | -0.013 ± 0.013 | 0.014 ± 0.018 | 0.032 ± 0.0028
6 | BF4T:CD54/ICAM-1 | 0.002 ± 0.011 | -0.002 ± 0.0028 | 0.011 ± 0.0071 | -0.0165 ± 0.0064 | -0.0065 ± 0.018 | -0.006 ± 0.021 | -0.0215 ± 0.025 | -0.01 ± 0.0071 | -0.0185 ± 0.0021 | -0.012 ± 0.0057 | 0.0095 ± 0.018 | 0.0065 ± 0.0021 | -0.0105 ± 0.015 | -0.0095 ± 0.022 | -0.0045 ± 0.0021 | -0.015 ± 0.0085 | -0.0125 ± 0.028 | -0.029 ± 0.0014 | -0.06 ± 0.045 | -0.0065 ± 0.016 | 0.002 ± 0.0085 | -0.0025 ± 0.032 | 0.0075 ± 0.032 | 0 ± 0.03 | -0.001 ± 0.0014 | 0.009 ± 0.033 | 0.01 ± 0.038 | -0.019 ± 0.011 | 0.013 ± 0.031 | 0.0105 ± 0.015
7 | CASM3C:HLA-DR | 0.009 ± 0.02 | -0.0065 ± 0.00071 | 0.0095 ± 0.019 | -0.0165 ± 0.00071 | -0.0075 ± 0.012 | 0.0025 ± 0.005 | 0.0055 ± 0.0021 | -0.023 ± 0.021 | -0.014 ± 0.018 | -0.0045 ± 0.026 | -0.01 ± 0.021 | -0.007 ± 0.021 | -0.0125 ± 0.042 | -0.0075 ± 0.016 | -0.008 ± 0.0014 | 0.008 | -0.006 ± 0.02 | -0.0045 ± 0.012 | -0.004 ± 0.0085 | 0.02 ± 0.051 | -0.007 ± 0.0028 | 0.0435 ± 0.033 | 0.006 ± 0.024 | -0.002 ± 0.064 | 0.013 ± 0.013 | 0.0115 ± 0.08 | 0.0055 ± 0.081 | 0.0005 ± 0.039 | 0.017 ± 0.0071 | 0.032 ± 0.095
8 | BT:sIL-6 | -0.005 ± 0.0057 | 0.0285 ± 0.05 | -0.0065 ± 0.011 | 0.0305 ± 0.022 | 0.072 ± 0.057 | -0.001 ± 0.02 | 0.0315 ± 0.015 | 0.055 ± 0.014 | -0.007 ± 0.011 | -0.0095 ± 0.00071 | -0.0075 ± 0.016 | -0.0365 ± 0.016 | 0.0315 ± 0.074 | -0.0335 ± 0.023 | -0.0795 ± 0.11 | 0.0135 ± 0.015 | -0.021 ± 0.018 | -0.0455 ± 0.023 | -0.0485 ± 0.026 | -0.0385 ± 0.052 | -0.008 | -0.046 ± 0.031 | -0.0915 ± 0.026 | 0.031 ± 0.017 | -0.0555 ± 0.056 | 0.013 ± 0.0028 | 0.0135 ± 0.04 | 0.0565 ± 0.0064 | 0.0055 ± 0.12 | -0.015 ± 0.064
